Measurements: PMC6868062
No constants are given. Whether binding was seen depends on the method and setting. Binding seen in cells or lysates may run through a third protein. Some binding calls cover weakened binding; strength is not graded here.

Experiments:
[1] = target: H2A.X (human (endogenous in SW480)) (UniProt P16104); assay: co-IP; endogenous proteins in SW480 lysate; immunoprecipitation with Livin antibody or H2A.X antibody (reciprocal), 4°C overnight, western blotting
HA-tagged WT H2A.X = HA-tagged WT H2A.X (UniProt P16104); assay: co-IP; HCT116 cells with shRNA knock-down of endogenous H2A.X, transfected with HA-tagged H2A.X WT or Y142F; lysate harvested 48 h after transfection; immunoprecipitation and western blotting for Livin

binding [1]: binds
binding (HA-tagged WT H2A.X): binds
B1: Livin (protein, UniProt Q96CA5 1-298)
chain: MGPKDSAKCLHRGPQPSHWAAGDGPTQERCGPRSLGSPVLGLDTCRAWDHVDGQILGQLRPLTEEEEEEGAGATLSRGPAFPGMGSEELRLASFYDWPLTAEVPPELLAAAGFFHTGHQDKVRCFFCYGGLQSWKRGDDPWTEHAKWFPSCQFLLRSKGRDFVHSVQETHSQLLGSWDPWEEPEDAAPVAPSVPASGYPELPTPRREVQSESAQEPGGVSPAEAQRAWWVLEPPGARDVEAQLRRLQEERTCKVCLDRAVSIVFVPCGHLVCAECAPGLQLCPICRAPVRSRVRTFLS
